We go through two substances from patent US7402298.

Protein sequences, listed by entry. Tags and fused reporters are not part of them. Residues count along the entry.
UniProt P20827, residues 19-182: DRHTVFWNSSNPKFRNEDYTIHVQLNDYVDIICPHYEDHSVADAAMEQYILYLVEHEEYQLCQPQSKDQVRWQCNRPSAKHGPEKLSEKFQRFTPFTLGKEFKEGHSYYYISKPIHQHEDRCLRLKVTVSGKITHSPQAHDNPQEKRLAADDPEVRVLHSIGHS

In one experiment the target is Cb1 adapter protein (UniProt P22681). In words: method not given; EphA2 activated by EphrinA1-Fc or monoclonal antibodies.
Experiment [1] concerns the target EphA2 receptor tyrosine kinase (human) (UniProt P29317). In words: immunoprecipitation (IP).
Experiment [2] shares this target. Description: immunofluorescence staining (IF).

No constants are given. Whether binding was seen depends on the method and setting. Some results given as binding are weak or reduced against the parent protein; the word gives no strength.

With “EphA2 receptor tyrosine kinase (from UniProt P29317 24-976)”, the binding result with Cb1 adapter protein is “binds”.
Take “EphrinA1-Fc, the extracellular domain of ephrinA1 linked to immunoglobulin heavy chain (from UniProt P20827 19-182) (Fc fusion)”: the binding result in experiment [1] and in experiment [2] was “binds” throughout.
